Percent effect of library compounds

Each number is a percent effect as filed. How 0% and 100% were set is not recorded. Most values in the screen are low, and negative values occur. The compounds are a random part of those screened. Two or more numbers in one place are separate tests of the same structure; such repeats can differ widely.

A: 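Whole-parasite assay of Trypanosoma brucei over 72 hours; the read-out is not stated. Concentration: 30 µM. The record gives no direction; compounds that gave an IC50 in retests scored well above the rest, so higher reads as stronger inhibition. Values scatter widely below zero; nearly all retest evidence comes from the higher of the two concentrations used. Of about 64,000 compounds tested this way, about 940 (1.5%) reached 50% or more in at least one test.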
B: 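Cell assay of Leishmania donovani living inside macrophages; the read-out is not stated. Concentration: 30 µM. Higher reads as stronger inhibition (inferred: compounds with an IC50 in retests scored well above the rest). Size under these conditions: about 69,000 compounds, about 1,000 of them at 50% or above in at least one test.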
C: 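Assay of Toxoplasma gondii numbers, read through their beta-galactosidase reporter with a colour substrate. Tested at 10 µM. The record gives no direction; the compounds picked for IC50 retests had high values, so higher reads as fewer parasites. About 67,000 compounds were tested under these conditions; 0.38% (about 260) showed 50% or more at least once.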

For CC(C)n1ccnc1CN1C(=O)OC[C@@H]1c1ccccc1 the result was A: -16.85%; B: 16.22%; C: 3.358%.
For Cn1cc(N2CCC3(CCN(Cc4cccnc4)C3)C2=O)cn1.O=C(O)C(F)(F)F.O=C(O)C(F)(F)F (stereo not given) the result was B: -14.07%; C: -0.4841%.
For CN(C)C1CCC2(CCN(Cc3cccnc3)CC2)c2ccccc21.O=C(O)C(F)(F)F.O=C(O)C(F)(F)F.O=C(O)C(F)(F)F (stereo not given) the result was A: -21.62%; B: 34.27%; C: 16.74%.
For CC(C)(C)c1nnc(CN2CCC(c3cc4ccccc4[nH]3)CC2)o1 the result was A: -6.889%; B: -16.59%; C: 2.044%.
For Cl.O=C(N1CCOCC1)N1CCCC2(CCCNC2)C1 (stereo not given) the result was A: -15.84%; B: -1.496%; C: -23.89%.
For CN(C)CC(=O)N1Cc2cc(-c3cc[nH]n3)ccc2C1c1cnco1 (stereo not given) the result was A: -50.19%; B: 23.89%; C: -3.614%.
For O=C(NCCNc1ncccn1)c1ccc(Cl)s1 the result was A: -47.61%; B: 28.88%; C: 13.95%.
For CC(CN1CCOCC1)NC(=O)NCc1ccoc1 (stereo not given) the result was A: 31.68%; B: 20.43%; C: 17.33%.
For Cc1cc(C(=O)N2CCC3(CCNCC3)CC2)c2cccc(C)c2n1 the result was A: -6.068%; B: 33.97%; C: 10.16%.
For CC(=O)c1cccc(OCC(=O)NS(=O)(=O)c2ccc(Br)s2)c1 the result was B: 12.18%; C: -18.59%.
For CCOCCC(=O)N(C)CC1Cc2ccccc2CN1C (stereo not given) the result was A: -8.974%; B: 29.01%; C: 11.08%.
For Cn1cnc(S(=O)(=O)NCC2(O)CCc3ccccc32)c1 (stereo not given) the result was A: -74.76%; B: 23.48%; C: -3.38%.
For Cn1c2c(c(=O)n1C)CN(C(=O)c1cnccn1)CCC2 the result was A: -5.09%; B: 7.118%; C: -7.383%.
For CCN(C1CCN(Cc2ncc(C(C)(C)C)o2)CC1)S(C)(=O)=O the result was A: 4.946%; B: 0.6332%; C: -5.568%.
For Cc1nnc(NCC2(c3ccccc3)CC2)c(C#N)c1C the result was A: -10.52%; B: 21.19%; C: -5.193%.
For Cc1ccc(CC(=O)N2CCCC(c3n[nH]c4nccnc34)C2)cc1 (stereo not given) the result was A: 1.566%; B: -1.282%; C: -9.048%.
For CNc1ncccc1CN1CCN(C)CC(C(N)=O)C1 (stereo not given) the result was A: -6.363%; B: 7.817%; C: -0.9916%.
For OCCn1nccc1C1CCN(CCCOc2ccc(F)cc2)CC1 the result was A: 37.55%; B: 20.86%; C: -8.349%.
For Cc1nc2ccccn2c1CC(=O)N[C@@H]1CC[C@@H](N2CCCC2)[C@@H]1O the result was A: -19.48%; B: 30.25% and 19.12%; C: 1.611%.
For CC(C)(C)CN1CCCC(c2nccnc2Nc2cnccn2)C1 (stereo not given) the result was B: -5.476%.
For CC(Oc1ccccc1)C(=O)N1CCCN(Cc2cscn2)CC1 (stereo not given) the result was B: 25.23%; C: -1.098%.
For COCCOc1ncccc1CNC(=O)N1CCCCCC1 the result was A: -67.34%; B: -3.908%; C: 6.244%.
For Cc1cnn(C2CCCN(C(=O)c3ccc(O)nc3)C2)c1 (stereo not given) the result was A: -0.03354%; B: 3.722%; C: 4.615%.
For O=C(NCCN1CCNC1=O)c1cnc(-c2cccnc2)nc1 the result was A: 18.29%; B: 10.23%; C: -0.5942%.
For CC(=O)Nn1c(C)cc(CN2CCC(c3ccncc3)CC2)c1C the result was A: 0.6356%; B: 30.16%; C: -5.881%.
For Cn1cccc1C(CNC(=O)COc1ccc(Cl)cc1Cl)N1CCCC1 (stereo not given) the result was A: 21.35%; B: 20.04% and -8.824%; C: 12.61%.
For O=C(NC[C@]1(O)CN(Cc2ccc(F)cc2)C[C@H]1O)c1ccccn1 the result was A: -18.36%; B: -0.4645% and 6.698%; C: -12.52%.
For O=C(CCc1cc2n(n1)CCCN(CCc1ccccc1)C2)NC1CC1 the result was A: -15.73%; B: 14.52%; C: 4.391%.
For COc1ccc(CCC(=O)Nc2ccncc2C)cc1 the result was A: -5.841%; B: 14.2%; C: -8.211%.
For CN(C)C(=O)CC1CC2(CCN(CC3CC3)CC2)Oc2ccccc21.O=C(O)C(F)(F)F (stereo not given) the result was A: -9.757%; B: 9.368%; C: -10.1%.
For Cc1c(Cl)c(C(F)(F)F)nn1C(C)C(=O)NN1CCN(C)CC1 (stereo not given) the result was A: -15.19%; B: -2.255%; C: 1.949%.
For CC(C)OCCCN(CC(=O)N1CCNCC1)C(=O)c1cccc(Cl)c1.O=C(O)C(F)(F)F the result was A: 10.45%; B: -12.18% and 24.21%; C: -9.137%.
For O=S(=O)(c1cc(F)ccc1F)N1CCCC1c1ccncc1 (stereo not given) the result was A: -37.95%; B: 40.94%; C: -2.632%.

The last 3 entries again:

For Cc1c(Cl)c(C(F)(F)F)nn1C(C)C(=O)NN1CCN(C)CC1 (stereo not given) the result was A: -15.19%; B: -2.255%; C: 1.949%.
For CC(C)OCCCN(CC(=O)N1CCNCC1)C(=O)c1cccc(Cl)c1.O=C(O)C(F)(F)F the result was A: 10.45%; B: -12.18% and 24.21%; C: -9.137%.
For O=S(=O)(c1cc(F)ccc1F)N1CCCC1c1ccncc1 (stereo not given) the result was A: -37.95%; B: 40.94%; C: -2.632%.

Data taken from ChEMBL document CHEMBL3988442, “University of Dundee, Small-Polar-MMV Screening Library” (2021).